The source of these data is article PMC9380745.

Chains of the proteins cited; added tags and fusions are not shown.
UniProt Q9UJV9: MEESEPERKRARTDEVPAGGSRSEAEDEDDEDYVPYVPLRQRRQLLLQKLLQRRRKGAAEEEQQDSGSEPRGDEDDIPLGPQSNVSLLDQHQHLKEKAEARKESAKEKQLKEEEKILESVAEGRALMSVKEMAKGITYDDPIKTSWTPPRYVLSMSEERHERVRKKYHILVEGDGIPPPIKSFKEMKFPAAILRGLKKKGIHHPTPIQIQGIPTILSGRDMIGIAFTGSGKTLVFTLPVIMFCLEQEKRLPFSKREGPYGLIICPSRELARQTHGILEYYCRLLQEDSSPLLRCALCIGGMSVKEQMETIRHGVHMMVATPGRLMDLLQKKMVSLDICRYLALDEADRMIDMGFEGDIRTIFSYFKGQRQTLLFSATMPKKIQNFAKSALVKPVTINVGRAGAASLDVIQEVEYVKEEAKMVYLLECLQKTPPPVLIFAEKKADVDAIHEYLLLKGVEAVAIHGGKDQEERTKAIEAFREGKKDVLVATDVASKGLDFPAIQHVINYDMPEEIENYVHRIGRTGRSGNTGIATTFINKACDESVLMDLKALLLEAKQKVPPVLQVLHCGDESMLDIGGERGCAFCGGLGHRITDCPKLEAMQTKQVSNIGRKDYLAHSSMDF
UniProt O43143: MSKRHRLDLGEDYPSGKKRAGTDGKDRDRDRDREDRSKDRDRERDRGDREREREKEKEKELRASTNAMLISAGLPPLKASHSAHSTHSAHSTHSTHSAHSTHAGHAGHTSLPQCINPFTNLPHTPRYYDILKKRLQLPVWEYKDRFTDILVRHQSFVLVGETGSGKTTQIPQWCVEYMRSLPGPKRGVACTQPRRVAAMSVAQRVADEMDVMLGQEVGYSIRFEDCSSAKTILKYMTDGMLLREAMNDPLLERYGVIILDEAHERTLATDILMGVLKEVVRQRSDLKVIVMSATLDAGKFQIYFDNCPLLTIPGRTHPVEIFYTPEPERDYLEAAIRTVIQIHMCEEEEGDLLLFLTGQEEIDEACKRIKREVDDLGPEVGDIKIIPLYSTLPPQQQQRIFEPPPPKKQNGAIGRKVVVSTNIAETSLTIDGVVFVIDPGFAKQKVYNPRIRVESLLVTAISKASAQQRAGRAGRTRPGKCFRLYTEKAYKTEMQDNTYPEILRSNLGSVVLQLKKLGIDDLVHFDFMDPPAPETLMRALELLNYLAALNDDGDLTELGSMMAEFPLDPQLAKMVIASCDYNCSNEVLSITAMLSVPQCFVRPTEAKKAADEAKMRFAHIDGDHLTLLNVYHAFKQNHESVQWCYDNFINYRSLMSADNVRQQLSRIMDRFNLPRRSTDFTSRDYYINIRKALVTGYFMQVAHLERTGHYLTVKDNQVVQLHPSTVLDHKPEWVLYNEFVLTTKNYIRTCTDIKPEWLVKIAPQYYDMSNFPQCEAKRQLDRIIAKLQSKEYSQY
UniProt P61326: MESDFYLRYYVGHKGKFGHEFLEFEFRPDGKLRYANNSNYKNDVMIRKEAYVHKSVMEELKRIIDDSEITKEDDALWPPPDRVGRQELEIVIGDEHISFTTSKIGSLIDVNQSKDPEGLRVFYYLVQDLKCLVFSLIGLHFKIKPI
UniProt O75643: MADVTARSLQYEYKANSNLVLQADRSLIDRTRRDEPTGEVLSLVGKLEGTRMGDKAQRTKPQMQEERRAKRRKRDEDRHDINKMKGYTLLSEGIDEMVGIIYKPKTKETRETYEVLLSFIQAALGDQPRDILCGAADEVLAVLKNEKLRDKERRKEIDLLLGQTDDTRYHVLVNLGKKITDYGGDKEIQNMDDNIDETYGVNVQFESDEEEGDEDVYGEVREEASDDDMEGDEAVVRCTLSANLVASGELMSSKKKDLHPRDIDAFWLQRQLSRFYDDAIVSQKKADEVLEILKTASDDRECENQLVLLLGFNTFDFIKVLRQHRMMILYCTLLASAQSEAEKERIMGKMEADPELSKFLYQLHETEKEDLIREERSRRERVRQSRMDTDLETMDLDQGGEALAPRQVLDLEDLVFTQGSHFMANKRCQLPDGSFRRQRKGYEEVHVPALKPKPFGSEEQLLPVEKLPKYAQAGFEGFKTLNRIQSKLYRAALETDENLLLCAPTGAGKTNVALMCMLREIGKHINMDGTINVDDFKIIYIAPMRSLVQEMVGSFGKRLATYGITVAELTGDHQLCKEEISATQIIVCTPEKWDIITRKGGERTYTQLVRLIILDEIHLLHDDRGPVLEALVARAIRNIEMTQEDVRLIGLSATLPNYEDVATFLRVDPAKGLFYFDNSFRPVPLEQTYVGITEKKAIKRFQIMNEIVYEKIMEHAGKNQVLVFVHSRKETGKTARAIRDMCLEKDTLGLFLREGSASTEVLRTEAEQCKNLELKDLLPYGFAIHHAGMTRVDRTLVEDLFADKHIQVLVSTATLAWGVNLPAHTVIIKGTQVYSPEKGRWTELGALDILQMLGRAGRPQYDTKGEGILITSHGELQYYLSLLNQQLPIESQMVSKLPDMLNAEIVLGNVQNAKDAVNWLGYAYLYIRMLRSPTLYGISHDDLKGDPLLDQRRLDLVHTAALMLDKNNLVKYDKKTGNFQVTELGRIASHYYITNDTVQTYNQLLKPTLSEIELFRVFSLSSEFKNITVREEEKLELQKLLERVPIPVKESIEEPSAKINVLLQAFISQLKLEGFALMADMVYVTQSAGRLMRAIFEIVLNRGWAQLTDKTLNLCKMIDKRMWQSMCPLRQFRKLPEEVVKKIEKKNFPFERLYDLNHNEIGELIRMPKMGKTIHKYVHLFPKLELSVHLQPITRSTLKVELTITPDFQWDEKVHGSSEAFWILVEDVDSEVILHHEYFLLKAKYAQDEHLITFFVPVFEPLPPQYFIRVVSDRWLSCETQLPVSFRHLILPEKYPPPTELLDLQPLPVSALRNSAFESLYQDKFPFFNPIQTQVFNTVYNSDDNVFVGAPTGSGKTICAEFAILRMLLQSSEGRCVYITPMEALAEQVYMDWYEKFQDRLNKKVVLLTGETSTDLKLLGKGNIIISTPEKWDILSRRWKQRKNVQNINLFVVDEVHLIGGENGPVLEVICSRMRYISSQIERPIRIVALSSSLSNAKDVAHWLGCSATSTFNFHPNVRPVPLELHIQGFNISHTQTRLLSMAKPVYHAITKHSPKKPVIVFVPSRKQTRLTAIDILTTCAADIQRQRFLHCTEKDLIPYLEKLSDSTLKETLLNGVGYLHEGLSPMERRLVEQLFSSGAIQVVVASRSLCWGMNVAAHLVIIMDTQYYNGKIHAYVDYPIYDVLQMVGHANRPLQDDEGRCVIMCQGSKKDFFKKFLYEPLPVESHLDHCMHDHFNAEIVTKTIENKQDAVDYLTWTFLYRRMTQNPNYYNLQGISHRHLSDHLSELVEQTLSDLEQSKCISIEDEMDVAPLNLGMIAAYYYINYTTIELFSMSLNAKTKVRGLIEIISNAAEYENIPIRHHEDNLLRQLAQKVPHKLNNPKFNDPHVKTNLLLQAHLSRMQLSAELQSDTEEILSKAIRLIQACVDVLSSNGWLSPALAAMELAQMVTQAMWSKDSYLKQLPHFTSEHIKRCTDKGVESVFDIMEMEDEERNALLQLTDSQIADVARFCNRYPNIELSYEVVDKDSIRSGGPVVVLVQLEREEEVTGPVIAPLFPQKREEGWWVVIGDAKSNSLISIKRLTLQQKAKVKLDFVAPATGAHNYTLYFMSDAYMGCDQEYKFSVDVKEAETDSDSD
UniProt P62304: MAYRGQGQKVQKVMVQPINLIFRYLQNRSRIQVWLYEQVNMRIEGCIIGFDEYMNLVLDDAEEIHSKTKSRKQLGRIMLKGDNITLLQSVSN
UniProt P62316: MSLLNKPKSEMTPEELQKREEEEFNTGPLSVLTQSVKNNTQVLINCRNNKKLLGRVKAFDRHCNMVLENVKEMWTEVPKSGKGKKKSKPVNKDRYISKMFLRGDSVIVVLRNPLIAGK
UniProt P62318: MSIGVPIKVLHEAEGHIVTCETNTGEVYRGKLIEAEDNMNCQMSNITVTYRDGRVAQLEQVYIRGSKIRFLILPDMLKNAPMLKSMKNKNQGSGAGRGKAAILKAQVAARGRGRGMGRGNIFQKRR
UniProt P38919: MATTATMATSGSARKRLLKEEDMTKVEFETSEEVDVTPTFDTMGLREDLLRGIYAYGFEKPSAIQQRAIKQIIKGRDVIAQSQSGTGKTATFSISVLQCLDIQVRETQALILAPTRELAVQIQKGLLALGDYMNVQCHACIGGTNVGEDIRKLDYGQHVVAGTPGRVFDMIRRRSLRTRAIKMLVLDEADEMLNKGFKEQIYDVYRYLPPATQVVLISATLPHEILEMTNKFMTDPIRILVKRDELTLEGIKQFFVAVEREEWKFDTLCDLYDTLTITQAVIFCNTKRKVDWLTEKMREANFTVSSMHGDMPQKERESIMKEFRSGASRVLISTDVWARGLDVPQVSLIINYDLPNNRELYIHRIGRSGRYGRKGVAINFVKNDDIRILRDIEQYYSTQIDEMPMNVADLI

Results are given in words; binding and its absence hold for the method and conditions named. In cells and extracts the contact can be indirect. Here binding means that the protein was enriched with, or labelled near, the bait; the list need not be complete. Tags and fused reporters may be left off the sequences shown.

Sequences and labels used below:
T1: DHX34–GFP–FLAG (human (endogenous in HEK293T)) (UniProt Q14147)
T1 sequence: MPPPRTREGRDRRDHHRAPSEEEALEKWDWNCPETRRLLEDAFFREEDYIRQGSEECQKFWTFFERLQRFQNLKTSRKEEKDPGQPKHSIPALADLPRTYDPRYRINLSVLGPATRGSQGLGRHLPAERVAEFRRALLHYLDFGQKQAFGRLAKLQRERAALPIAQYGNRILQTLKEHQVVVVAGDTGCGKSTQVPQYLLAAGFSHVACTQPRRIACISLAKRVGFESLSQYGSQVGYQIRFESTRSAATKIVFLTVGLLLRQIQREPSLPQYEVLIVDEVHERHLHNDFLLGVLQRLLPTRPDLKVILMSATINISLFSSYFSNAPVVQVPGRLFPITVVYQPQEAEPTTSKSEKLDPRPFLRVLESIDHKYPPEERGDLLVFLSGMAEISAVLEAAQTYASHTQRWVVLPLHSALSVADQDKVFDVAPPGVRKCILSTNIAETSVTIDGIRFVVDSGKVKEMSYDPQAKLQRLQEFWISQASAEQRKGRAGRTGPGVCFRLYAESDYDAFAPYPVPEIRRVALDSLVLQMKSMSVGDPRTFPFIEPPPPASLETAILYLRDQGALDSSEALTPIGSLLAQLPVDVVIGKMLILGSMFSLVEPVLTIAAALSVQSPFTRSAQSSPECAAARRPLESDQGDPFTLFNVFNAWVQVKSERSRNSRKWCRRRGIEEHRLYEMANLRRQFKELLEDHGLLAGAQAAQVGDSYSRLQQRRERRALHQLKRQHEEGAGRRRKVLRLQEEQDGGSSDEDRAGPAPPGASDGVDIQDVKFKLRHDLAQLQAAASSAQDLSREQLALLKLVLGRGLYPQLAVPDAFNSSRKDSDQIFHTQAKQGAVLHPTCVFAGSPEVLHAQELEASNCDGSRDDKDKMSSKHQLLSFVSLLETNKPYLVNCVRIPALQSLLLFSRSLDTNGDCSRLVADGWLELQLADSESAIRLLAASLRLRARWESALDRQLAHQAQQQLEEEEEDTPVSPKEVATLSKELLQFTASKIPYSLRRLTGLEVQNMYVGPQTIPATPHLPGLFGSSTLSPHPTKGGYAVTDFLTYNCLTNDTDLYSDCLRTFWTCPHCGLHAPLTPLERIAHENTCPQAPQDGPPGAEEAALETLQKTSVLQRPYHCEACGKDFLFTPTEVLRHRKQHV

B1: SNRNP40 (protein, UniProt Q96DI7 1-357)
chain: MIEQQKRKGPELPLVPVKRQRHELLLGAGSGPGAGQQQATPGALLQAGPPRCSSLQAPIMLLSGHEGEVYCCKFHPNGSTLASAGFDRLILLWNVYGDCDNYATLKGHSGAVMELHYNTDGSMLFSASTDKTVAVWDSETGERVKRLKGHTSFVNSCYPARRGPQLVCTGSDDGTVKLWDIRKKAAIQTFQNTYQVLAVTFNDTSDQIISGGIDNDIKVWDLRQNKLTYTMRGHADSVTGLSLSSEGSYLLSNAMDNTVRVWDVRPFAPKERCVKIFQGNVHNFEKNLLRCSWSPDGSKIAAGSADRFVYVWDTTSRRILYKLPGHAGSINEVAFHPDEPIIISASSDKRLYMGEIQ
B2: ISY1 (protein, UniProt Q9ULR0 1-285)
chain: MARNAEKAMTALARFRQAQLEEGKVKERRPFLASECTELPKAEKWRRQIIGEISKKVAQIQNAGLGEFRIRDLNDEINKLLREKGHWEVRIKELGGPDYGKVGPKMLDHEGKEVPGNRGYKYFGAAKDLPGVRELFEKEPLPPPRKTRAELMKAIDFEYYGYLDEDDGVIVPLEQEYEKKLRAELVEKWKAEREARLARGEKEEEEEEEEEINIYAVTEEESDEEGSQEKGGDDSQQKFIAHVPVPSQQEIEEALVRRKKMELLQKYASETLQAQSEEARRLLGY
B3: GPATCH1 (protein, UniProt Q9BRR8 1-931)
chain: MAARDSDSEEDLVSYGTGLEPLEEGERPKKPIPLQDQTVRDEKGRYKRFHGAFSGGFSAGYFNTVGSKEGWTPSTFVSSRQNRADKSVLGPEDFMDEEDLSEFGIAPKAIVTTDDFASKTKDRIREKARQLAAATAPIPGATLLDDLITPAKLSVGFELLRKMGWKEGQGVGPRVKRRPRRQKPDPGVKIYGCALPPGSSEGSEGEDDDYLPDNVTFAPKDVTPVDFTPKDNVHGLAYKGLDPHQALFGTSGEHFNLFSGGSERAGDLGEIGLNKGRKLGISGQAFGVGALEEEDDDIYATETLSKYDTVLKDEEPGDGLYGWTAPRQYKNQKESEKDLRYVGKILDGFSLASKPLSSKKIYPPPELPRDYRPVHYFRPMVAATSENSHLLQVLSESAGKATPDPGTHSKHQLNASKRAELLGETPIQGSATSVLEFLSQKDKERIKEMKQATDLKAAQLKARSLAQNAQSSRAQLSPAAAAGHCSWNMALGGGTATLKASNFKPFAKDPEKQKRYDEFLVHMKQGQKDALERCLDPSMTEWERGRERDEFARAALLYASSHSTLSSRFTHAKEEDDSDQVEVPRDQENDVGDKQSAVKMKMFGKLTRDTFEWHPDKLLCKRFNVPDPYPDSTLVGLPRVKRDKYSVFNFLTLPETASLPTTQASSEKVSQHRGPDKSRKPSRWDTSKHEKKEDSISEFLSLARSKAEPPKQQSSPLVNKEEEHAPELSANQTVNKDVDAQAEGEGSRPSMDLFRAIFASSSDEKSSSSEDEQGDSEDDQAGSGEANFQSSQDTDLGETSSVAHALVPAPQEPPPSFPIQKMQIDEREEFGPRLPPVFCPNARQTLEVPQKEKHKKNKDKHKAKKEHRRKKEKKKKHRKHKHKGKQKNKKPEKSSSSESSDSSDSQSDEETADVSPQELLRRLKSLPLRRQ
B4: DHX38/Prp16 (protein, UniProt Q92620 1-1227)
chain: MGDTSEDASIHRLEGTDLDCQVGGLICKSKSAASEQHVFKAPAPRPSLLGLDLLASLKRREREEKDDGEDKKKSKVSSYKDWEESKDDQKDAEEEGGDQAGQNIRKDRHYRSARVETPSHPGGVSEEFWERSRQRERERREHGVYASSKEEKDWKKEKSRDRDYDRKRDRDERDRSRHSSRSERDGGSERSSRRNEPESPRHRPKDAATPSRSTWEEEDSGYGSSRRSQWESPSPTPSYRDSERSHRLSTRDRDRSVRGKYSDDTPLPTPSYKYNEWADDRRHLGSTPRLSRGRGRREEGEEGISFDTEEERQQWEDDQRQADRDWYMMDEGYDEFHNPLAYSSEDYVRRREQHLHKQKQKRISAQRRQINEDNERWETNRMLTSGVVHRLEVDEDFEEDNAAKVHLMVHNLVPPFLDGRIVFTKQPEPVIPVKDATSDLAIIARKGSQTVRKHREQKERKKAQHKHWELAGTKLGDIMGVKKEEEPDKAVTEDGKVDYRTEQKFADHMKRKSEASSEFAKKKSILEQRQYLPIFAVQQELLTIIRDNSIVIVVGETGSGKTTQLTQYLHEDGYTDYGMIGCTQPRRVAAMSVAKRVSEEMGGNLGEEVGYAIRFEDCTSENTLIKYMTDGILLRESLREADLDHYSAIIMDEAHERSLNTDVLFGLLREVVARRSDLKLIVTSATMDAEKFAAFFGNVPIFHIPGRTFPVDILFSKTPQEDYVEAAVKQSLQVHLSGAPGDILIFMPGQEDIEVTSDQIVEHLEELENAPALAVLPIYSQLPSDLQAKIFQKAPDGVRKCIVATNIAETSLTVDGIMFVIDSGYCKLKVFNPRIGMDALQIYPISQANANQRSGRAGRTGPGQCFRLYTQSAYKNELLTTTVPEIQRTNLANVVLLLKSLGVQDLLQFHFMDPPPEDNMLNSMYQLWILGALDNTGGLTSTGRLMVEFPLDPALSKMLIVSCDMGCSSEILLIVSMLSVPAIFYRPKGREEESDQIREKFAVPESDHLTYLNVYLQWKNNNYSTIWCNDHFIHAKAMRKVREVRAQLKDIMVQQRMSLASCGTDWDIVRKCICAAYFHQAAKLKGIGEYVNIRTGMPCHLHPTSSLFGMGYTPDYIVYHELVMTTKEYMQCVTAVDGEWLAELGPMFYSVKQAGKSRQENRRRAKEEASAMEEEMALAEEQLRARRQEQEKRSPLGSVRSTKIYTPGRKEQGEPMTPRRTPARFGL
B5: DHX8/Prp22 (protein, UniProt Q14562 1-1220)
chain: MAVAVAMAGALIGSEPGPAEELAKLEYLSLVSKVCTELDNHLGINDKDLAEFVISLAEKNTTFDTFKASLVKNGAEFTDSLISNLLRLIQTMRPPAKPSTSKDPVVKPKTEKEKLKELFPVLCQPDNPSVRTMLDEDDVKVAVDVLKELEALMPSAAGQEKQRDAEHRDRTKKKKRSRSRDRNRDRDRDRERNRDRDHKRRHRSRSRSRSRTRERNKVKSRYRSRSRSQSPPKDRKDRDKYGERNLDRWRDKHVDRPPPEEPTIGDIYNGKVTSIMQFGCFVQLEGLRKRWEGLVHISELRREGRVANVADVVSKGQRVKVKVLSFTGTKTSLSMKDVDQETGEDLNPNRRRNLVGETNEETSMRNPDRPTHLSLVSAPEVEDDSLERKRLTRISDPEKWEIKQMIAANVLSKEEFPDFDEETGILPKVDDEEDEDLEIELVEEEPPFLRGHTKQSMDMSPIKIVKNPDGSLSQAAMMQSALAKERRELKQAQREAEMDSIPMGLNKHWVDPLPDAEGRQIAANMRGIGMMPNDIPEWKKHAFGGNKASYGKKTQMSILEQRESLPIYKLKEQLVQAVHDNQILIVIGETGSGKTTQITQYLAEAGYTSRGKIGCTQPRRVAAMSVAKRVSEEFGCCLGQEVGYTIRFEDCTSPETVIKYMTDGMLLRECLIDPDLTQYAIIMLDEAHERTIHTDVLFGLLKKTVQKRQDMKLIVTSATLDAVKFSQYFYEAPIFTIPGRTYPVEILYTKEPETDYLDASLITVMQIHLTEPPGDILVFLTGQEEIDTACEILYERMKSLGPDVPELIILPVYSALPSEMQTRIFDPAPPGSRKVVIATNIAETSLTIDGIYYVVDPGFVKQKVYNSKTGIDQLVVTPISQAQAKQRAGRAGRTGPGKCYRLYTERAYRDEMLTTNVPEIQRTNLASTVLSLKAMGINDLLSFDFMDAPPMETLITAMEQLYTLGALDDEGLLTRLGRRMAEFPLEPMLCKMLIMSVHLGCSEEMLTIVSMLSVQNVFYRPKDKQALADQKKAKFHQTEGDHLTLLAVYNSWKNNKFSNPWCYENFIQARSLRRAQDIRKQMLGIMDRHKLDVVSCGKSTVRVQKAICSGFFRNAAKKDPQEGYRTLIDQQVVYIHPSSALFNRQPEWVVYHELVLTTKEYMREVTTIDPRWLVEFAPAFFKVSDPTKLSKQKKQQRLEPLYNRYEEPNAWRISRAFRRR

In this assay the target is T1, DHX34–GFP–FLAG (human (endogenous in HEK293T)). As to the kind of experiment: affinity purification with mass spectrometry; anti-GFP antibody-coupled magnetic beads (ChromoTek) on lysates of three independent CRISPR DHX34–GFP–FLAG HEK293T clones (A5, A10, 1B3); cells lysed as in the immunoprecipitation protocol; IP buffer; KingFisher Duo robot; in-solution digestion; LFQ with MaxQuant.
As for DDX41 (from UniProt Q9UJV9 1-622), the binding result was “binds”.

With DHX15/Prp43 (from UniProt O43143 1-795), the binding entry is “binds”.

Take MAGOH (from UniProt P61326 1-146): the binding entry is “binds”.

Consider SNRNP200 (from UniProt O75643 1-2136), for which the binding result is given as “binds”.

In the case of SNRNPE (from UniProt P62304 1-92), the binding entry was “binds”.

Consider SNRPD2 (from UniProt P62316 1-118), for which the binding result is recorded as “binds”.

Regarding SNRPD3 (from UniProt P62318 1-126), the binding entry was “binds”.

Regarding eIF4A3 (from UniProt P38919 1-411), the binding result is “binds”.

With B1, the binding entry is recorded as “binds”.

On to B2, for which the binding entry is given as “binds”.

In the case of B3, the binding entry is recorded as “binds”.

Take B4: the binding result is listed as “binds”.

On to B5, for which the binding result is listed as “binds”.
